PubChem BioAssay AID1487 (National Center for Advancing Translational Sciences (NCATS), 2009)
The other results are listed elsewhere or left out. Further columns of the screen follow, without active or inactive calls. Most of these compounds were active or inconclusive in the main read-out, so they are no random draw. Potencies come from curve fits of mixed quality, noted in brackets.

Assay: qHTS Assay for Modulators of Lamin A Splicing
Conditions: HeLa LMNA splicing GFP/RFP minigene ratio, 48 h
Summary of the method: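 S3 HeLa cells stably expressing lamin A-EGFP splicing minigene plus DsRed2, 600 cells/well, 48 h compound exposure at 37C. Laser-scanning cytometry; analysed as GFP (500-530 nm)/RFP (575-640 nm) total intensity ratio; 0.5% DMSO vehicle.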

[1] = measured here: GFP splicing reporter channel
[2] = measured here: RFP viability control channel

## COc1ccc(OCC(=O)NCCC2=CCCCC2)c([N+](=O)[O-])c1
[1]
  AC50: 0.00316 µM [rising, full curve, poor fit]
[2]
  AC50: 4.47 µM [rising, partial curve, poor fit]

## CSCc1nc2scc(-c3ccccc3)c2c(=O)[nH]1
[1]
  AC50: 0.1 µM [rising, full curve]
[2]
  AC50: 0.112 µM [rising, full curve, poor fit]

## CC(=O)Nc1ccc(S(=O)(=O)n2cnc3cc(C)c(C)cc32)cc1
[1]
  AC50: 0.0891 µM [rising, full curve, poor fit]
[2]
  AC50: 0.0891 µM [rising, full curve, poor fit]

## COc1ccc(-c2c(C)c3ccc(O)c(CN4CCC(C)CC4)c3oc2=O)cc1OC
[1]
  AC50: 0.282 µM [rising, full curve]
[2]
  AC50: 1 µM [rising, partial curve]

## COc1ccc(-c2nc3cnc(N4CCOCC4)nc3n(CCc3ccccc3)c2=O)cc1
[2]
  AC50: 12.6 µM [falling, single point]

## CN(c1ccc(C(=O)Nc2ccc(Cl)cn2)cc1)S(=O)(=O)c1ccccc1
[1]
  AC50: 12.6 µM [rising, single point]

## O=C(CC1C(=O)NCCN1CC1CCCCC1)NCCc1ccc(F)cc1 (stereo not drawn)
[1]
  AC50: 35.5 µM [falling, single point]
[2]
  AC50: 0.0251 µM [falling, full curve, poor fit]

## O=C(/C=C/NCc1cccnc1)C(F)(F)C(F)(F)F
[2]
  AC50: 3.16 µM [falling, partial curve]

## CN(C)CCNC(=O)/C=C/c1cn(-c2ccccc2)nc1-c1cc2ccccc2oc1=O
[2]
  AC50: 35.5 µM [rising, single point]

## CCN1CCN(c2oc(-c3ccc(COc4ccccc4C)o3)nc2C#N)CC1
[1]
  AC50: 15.8 µM [rising, single point]
[2]
  AC50: 14.1 µM [rising, single point]

## O=C(O)c1ccccc1Sc1c([N+](=O)[O-])cc(C(F)(F)F)cc1[N+](=O)[O-]
[2]
  AC50: 0.158 µM [falling, full curve]

## Cc1ccc(OCc2nc3c4c(ncn3n2)-c2ccccc2CC42CCCC2)cc1
[2]
  AC50: 5.62 µM [rising, single point]

## COc1ccc(C)cc1NC(=O)c1ccc(CN2CCN(c3ccccc3)CC2)cc1
[1]
  AC50: 10 µM [rising, partial curve]
[2]
  AC50: 20 µM [rising, single point]

## COc1ccc(Cn2ccc3nc(C)c(C(=O)Nc4cccc(SC)c4)cc3c2=O)cc1
[2]
  AC50: 11.2 µM [rising, single point]

## Oc1c(C(Nc2ccccn2)c2ccccc2F)ccc2cccnc12 (stereo not drawn)
[2]
  AC50: 11.2 µM [rising, partial curve, poor fit]

## CCOC(=O)N1CCC(NC(=O)c2cc(C(=O)NCc3ccc(F)cc3)ccc2CO)CC1
[2]
  AC50: 35.5 µM [rising, single point]

## COCCn1c(=O)c(-c2ccccc2)nc2cnc(Oc3cccc(Cl)c3)nc21
[1]
  AC50: 12.6 µM [falling, partial curve]

## CCOC(=O)Cn1nc(C)c(NC(=O)c2ccc(Cl)c([N+](=O)[O-])c2)c1C
[2]
  AC50: 0.631 µM [falling, partial curve, poor fit]

## CCCOc1ccc(-c2csc(N)n2)cc1[N+](=O)[O-]
[2]
  AC50: 11.2 µM [rising, partial curve]

## Cc1cccc(N(C(=O)c2nsc(Cl)c2Cl)C(C(=O)NC2CCCC2)c2ccc(O)cc2)c1C (stereo not drawn)
[2]
  AC50: 31.6 µM [rising, single point]

## O=C(NC(=S)NCC1CCCO1)c1cccc([N+](=O)[O-])c1 (stereo not drawn)
[2]
  AC50: 0.00794 µM [rising, full curve, poor fit]

## Nc1cnn(Cc2ccc(F)cc2)c1
[2]
  AC50: 0.141 µM [rising, full curve, poor fit]

## COc1ccc(N=c2scc(-c3ccc(S(=O)(=O)N4CCOCC4)cc3)n2CCCO)cc1
[2]
  AC50: 11.2 µM [rising, partial curve]

## CC(=O)c1ccc(NS(=O)(=O)c2ccc3c(c2)NC(=O)CCS3)cc1
[1]
  AC50: 35.5 µM [rising, single point]
[2]
  AC50: 35.5 µM [rising, single point]

## Nc1c2c(nc3ccc(Br)cc13)N(Cc1ccccc1)CC2
[1]
  AC50: 15.8 µM [rising, single point]
[2]
  AC50: 11.2 µM [rising, partial curve, poor fit]

## Cc1cccc(S(=O)(=O)c2cn(Cc3ccccc3)c3cc(N4CCCCC4)c(F)cc3c2=O)c1
[1]
  AC50: 12.6 µM [rising, single point]

## CCOC(=O)NC(=O)C(=CNNc1ncc(C(F)(F)F)cc1Cl)C(=O)NC(=O)OCC
[1]
  AC50: 3.55 µM [falling, single point]
[2]
  AC50: 5.62 µM [falling, single point]

## COc1ccc(-c2nc3sc(CCNC(=O)c4ccc(Br)o4)c(C)n3n2)cc1
[2]
  AC50: 15.8 µM [rising, single point]

## COc1cc(NC(=O)C2=C(N3CCOCC3)/C(=C\c3ccc(N(C)C)cc3)CCC2)cc(OC)c1OC
[1]
  AC50: 7.08 µM [rising, partial curve]
[2]
  AC50: 7.08 µM [rising, partial curve]

## CC1=C/C(=N\S(=O)(=O)c2ccccc2)C(C(C)C)=CC1=O
[2]
  AC50: 31.6 µM [rising, partial curve]

## COc1cccc(OC)c1C(=O)Oc1ccc2c(c1)O/C(=C\c1ccncc1)C2=O
[2]
  AC50: 35.5 µM [falling, single point]

## O=C(c1cccc(S(=O)(=O)N2CCc3ccccc32)c1)N1CCN(c2ccccn2)CC1
[1]
  AC50: 5.62 µM [falling, single point]
[2]
  AC50: 20 µM [rising, partial curve, poor fit]

## COC(=O)c1ccc(NC(=O)C(=O)N2CCN(C(=S)Nc3ccc(OC)cc3)CC2)cc1
[2]
  AC50: 14.1 µM [rising, single point]

## O=C1NCCN(Cc2ccc(Cl)c(F)c2)C1CC(=O)N1CCc2ccccc2C1 (stereo not drawn)
[1]
  AC50: 0.00501 µM [falling, full curve, poor fit]

## O=C1c2cccc3cccc(c23)C(=O)N1CC1CCN(CC(O)COCc2ccc3c(c2)OCO3)CC1 (stereo not drawn)
[1]
  AC50: 35.5 µM [rising, single point]
[2]
  AC50: 35.5 µM [rising, single point]
